The values below come from PubChem BioAssay AID248 (DTP/NCI, 2004).

SMILES strings stand for the structures. The list does not hold the whole screen: it gathers tests that were run many times, whatever their T/C, doses with no T/C, and many T/C values between a quarter and a half above the control. Further doses and runs are listed elsewhere. T/C: endpoint of the treated group in % of that of the vehicle group. Some entries give survivors of the animals treated and no T/C: the source holds a T/C of zero for them, seemingly a mark for toxic or unscored doses. Some survivor counts are full or nearly so, which does not show that the dose was tolerated: survival well below the control is almost never listed, so the zero probably covers shortened survival too. Survivors were counted at the toxicity check, usually on the fifth day, unless a day is given; later deaths do not show. Schedules are NCI's codes, read here as Q, the interval in days (D) or hours (H), X, the number of doses. Some entries were tested several times; their values stand side by side, smallest first. Where survival is the endpoint, the PubChem record calls one and a half times the control and up active, and a quarter to a half above the control has no call in these data; cut-offs in other NCI protocols can differ.

This assay deals with L1210 leukemia ip in BDF1 mice, survival T/C. Briefly: NCI In Vivo Anticancer Drug Screen. Data for tumor model L1210 Leukemia (intraperitoneal) in B6D2F1 (BDF1) mice. The settings on record: T/C endpoint: mean survival time, higher T/C = longer survival.
Where [1] appears, read: dose: 200.0 mg/kg/injection, schedule: Q01DX001 (ip), vehicle: acetone.
The mark [2] stands for this setting: dose: 400.0 mg/kg/injection, schedule: Q01DX001 (ip), vehicle: acetone.
Setting [3] is: dose: 400.0 mg/kg/injection, schedule: Q04DX003 (ip), vehicle: saline with Tween-80.
The mark [4] stands for this setting: dose: 400.0 mg/kg/injection, schedule: Q04DX003 (ip), vehicle: Klucel (hydroxypropylcellulose) (HPC).
Setting [5] is: dose: 200.0 mg/kg/injection, schedule: Q01DX009 (ip), vehicle: Klucel (hydroxypropylcellulose) (HPC).
Setting [6] is: dose: 400.0 mg/kg/injection, schedule: Q01DX009 (ip), vehicle: Klucel (hydroxypropylcellulose) (HPC).

Turning to `COc1cc2c(c3c1c(=O)c1ccccc1n3C)C=CC(C)(C)O2`, the survivor count by setting is: (dose: 100.0 mg/kg/injection, schedule: Q01DX001 (ip), vehicle: acetone) 1 of 6; under setting [1], 0 of 6 and 3 of 6; (dose: 200.0 mg/kg/injection, schedule: Q01DX009 (ip), vehicle: acetone) 5 of 6; under setting [2], 0 of 6; (dose: 400.0 mg/kg/injection, schedule: Q01DX009 (ip), vehicle: acetone) 0 of 6; (dose: 800.0 mg/kg/injection, schedule: Q01DX001 (ip), vehicle: acetone) 0 of 6.

`OC(c1ccc(OCc2ccccc2)cc1)c1nccc2ccccc12` (configuration not stated): the survivor count under setting [1] is recorded as 6 of 6 and the survivor count under setting [2] is listed as 6 of 6.

As for `CCOc1ccc(O)cc1`, the survivor count (dose: 400.0 mg/kg/injection, schedule: Q04DX002 (ip), vehicle: saline + alcohol) is 1 of 3.

In the case of `[NH-]CC(=O)[N-]CC(=O)O.[NH-]CC(=O)[N-]CC(=O)O.[Ni]`, the survivor count reads like this: (dose: 50.0 mg/kg/injection, schedule: Q01DX009 (ip), vehicle: saline) 3 of 6; (dose: 100.0 mg/kg/injection, schedule: Q01DX009 (ip), vehicle: saline) 0 of 6; (dose: 200.0 mg/kg/injection, schedule: Q04DX003 (ip), vehicle: saline) 1 of 6; (dose: 400.0 mg/kg/injection, schedule: Q04DX003 (ip), vehicle: saline) 1 of 6.

`NC(=S)c1cn(C2OC(CO)C(O)C2O)c2ncnc(N)c12` (configuration not stated): the T/C was 127 % of control (dose: 1.9 mg/kg/injection, schedule: Q01DX009 (ip), vehicle: carboxymethylcellulose (CMC)); 142 % of control (dose: 4.0 mg/kg/injection, schedule: Q04DX003 (ip), vehicle: saline); 127 % of control (dose: 7.5 mg/kg/injection, schedule: Q01DX009 (ip), vehicle: carboxymethylcellulose (CMC)); 134 % of control (dose: 16.0 mg/kg/injection, schedule: Q08DX002 (ip), vehicle: other). The survivor count is listed as 1 of 6 (dose: 3.0 mg/kg/injection, schedule: Q03HX016 (ip), vehicle: other); 2 of 6 (dose: 4.0 mg/kg/injection, schedule: Q03HX024 (ip), vehicle: saline); 0 of 6 (dose: 7.5 mg/kg/injection, schedule: Q01DX015 (ip), vehicle: saline); 1 of 6 (dose: 11.3 mg/kg/injection, schedule: Q01DX015 (ip), vehicle: saline); 3 of 6 (dose: 15.0 mg/kg/injection, schedule: Q01DX009 (ip), vehicle: carboxymethylcellulose (CMC)); 3 of 6 (dose: 17.0 mg/kg/injection, schedule: Q01DX015 (ip), vehicle: saline). Also, the survivor count (dose: 20.0 mg/kg/injection, schedule: Q01DX001 (ip), vehicle: saline) is on record as 0 of 4; the survivor count (dose: 24.0 mg/kg/injection, schedule: Q08DX002 (ip), vehicle: other) is on record as 1 of 6; the survivor count (dose: 30.0 mg/kg/injection, schedule: Q01DX001 (ip), vehicle: carboxymethylcellulose (CMC)) is 2 of 6; the survivor count (dose: 32.0 mg/kg/injection, schedule: Q04DX003 (ip), vehicle: saline) is reported as 0 of 6; the survivor count (dose: 40.0 mg/kg/injection, schedule: Q01DX001 (ip), vehicle: saline) is recorded as 0 of 4; the survivor count (dose: 80.0 mg/kg/injection, schedule: Q01DX001 (ip), vehicle: saline) is 0 of 4.

As to `OCc1cc(Cl)ccc1O`, the survivor count (dose: 400.0 mg/kg/injection, schedule: Q01DX009 (ip), vehicle: other) is 0 of 6.

As to `CC(C)=CCNC12CC3CC(CC(C3)C1)C2`, the survivor count was 3 of 6 (dose: 75.0 mg/kg/injection, schedule: Q01DX001 (ip), vehicle: saline); 0 of 6 (dose: 150.0 mg/kg/injection, schedule: Q01DX001 (ip), vehicle: saline); 0 of 6 (dose: 300.0 mg/kg/injection, schedule: Q01DX001 (ip), vehicle: saline).

In the case of `CC1CN1C1=C(F)C(=O)C(N2CC2C)=C(F)C1=O` (configuration not stated), the survivor count is on record as 1 of 6 (dose: 6.25 mg/kg/injection, schedule: Q04DX003 (ip), vehicle: Klucel (hydroxypropylcellulose) (HPC)); 4 of 6 (dose: 7.0 mg/kg/injection, schedule: Q01DX009 (ip), vehicle: Klucel (hydroxypropylcellulose) (HPC)); 2 of 6 (dose: 10.0 mg/kg/injection, schedule: Q01DX009 (ip), vehicle: Klucel (hydroxypropylcellulose) (HPC)); 0 of 6 (dose: 12.5 mg/kg/injection, schedule: Q04DX003 (ip), vehicle: Klucel (hydroxypropylcellulose) (HPC)); 0 of 6 (dose: 25.0 mg/kg/injection, schedule: Q04DX003 (ip), vehicle: Klucel (hydroxypropylcellulose) (HPC)); 0 of 6 (dose: 50.0 mg/kg/injection, schedule: Q04DX003 (ip), vehicle: Klucel (hydroxypropylcellulose) (HPC)). Under “dose: 100.0 mg/kg/injection, schedule: Q04DX003 (ip), vehicle: Klucel (hydroxypropylcellulose) (HPC)”, the survivor count is listed as 0 of 6.

In the case of `Cn1nc2ccccc2n1`, the T/C (dose: 200.0 mg/kg/injection, schedule: Q04DX003 (ip), vehicle: saline with Tween-80) was 133 % of control and the T/C under setting [3] was 125 % of control.

Regarding `NNC(=S)Nc1ccccc1F`, the survivor count is 0 of 6 (dose: 75.0 mg/kg/injection, schedule: Q01DX001 (ip), vehicle: other); 0 of 6 (dose: 150.0 mg/kg/injection, schedule: Q01DX001 (ip), vehicle: other); 0 of 6 (dose: 300.0 mg/kg/injection, schedule: Q01DX001 (ip), vehicle: other).

As to `CC#CC(=O)SCCNC(=O)CC`, the survivor count (dose: 100.0 mg/kg/injection, schedule: Q01DX009 (ip), vehicle: saline with Tween-80) was 2 of 6 and the survivor count under setting [3] is reported as 0 of 6.

On to `O=C(O)CCCCc1ccc(CCCCC(=O)O)cc1`, for which the survivor count by setting is: (dose: 200.0 mg/kg/injection, schedule: Q01DX009 (ip), vehicle: saline with Tween-80) 0 of 6; under setting [4], 3 of 6.

Take `Cc1cnc2c(NC(=O)CCl)nn(C)c2n1`: the survivor count is 0 of 6 under setting [5], 0 of 6 under setting [6] and 0 of 6 under setting [4].

For the compound `COC(=O)C1C2CC3c4[nH]c5ccc(OC)cc5c4CCN3CC2CC(OC(=O)c2cc(OC)c(OC)c(OC)c2)C1OC` (configuration not stated), the survivor count is 5 of 6 (dose: 182.5 mg/kg/injection, schedule: Q01DX009 (ip), vehicle: Klucel (hydroxypropylcellulose) (HPC)) and 6 of 6 (dose: 365.0 mg/kg/injection, schedule: Q01DX009 (ip), vehicle: Klucel (hydroxypropylcellulose) (HPC)).

Consider `Clc1[nH]nc2ccccc12`, for which the survivor count (dose: 200.0 mg/kg/injection, schedule: Q01DX001 (ip), vehicle: saline sonified) is on record as 6 of 6 and the survivor count (dose: 400.0 mg/kg/injection, schedule: Q01DX001 (ip), vehicle: saline sonified) is listed as 5 of 6.

Take `CCOC(CCC#N)c1ccccc1` (configuration not stated): under “dose: 445.0 mg/kg/injection, schedule: Q01DX009 (ip), vehicle: saline with Tween-80”, the survivor count is 3 of 6.

Turning to `O=C(/C=C/c1ccc2c(c1)OCO2)/C=C/c1ccc2c(c1)OCO2`, under “dose: 400.0 mg/kg/injection, schedule: Q01DX009 (ip), vehicle: saline”, the survivor count is 4 of 6.

Regarding `O=C(O)c1ccc(Cl)cc1Nc1ccc(F)cc1`, the survivor count is recorded as 6 of 6 under setting [5] and 6 of 6 under setting [6].

For the compound `C1CCCC(NNC2CCCCCCC2)CCC1`, the survivor count (dose: 200.0 mg/kg/injection, schedule: Q01DX001 (ip), vehicle: saline) is on record as 0 of 6 and the survivor count (dose: 400.0 mg/kg/injection, schedule: Q01DX001 (ip), vehicle: saline) is listed as 0 of 6.
